# Measurements from patent US9517222B2, “Method for the treatment of senile dementia of the Alzheimer's type” (Phenomenome Discoveries Inc., priority 2007, dated 2016).
# Where no unit stands, none is given here, and values compare only within one read-out.
# What was measured:
# [1] = Serum ethanolamine phospholipid levels in human cohorts (dementia severity, post-mortem pathology, age) by flow-injection MS/MS
# [2] = Serum ethanolamine phospholipid ratios to PtdEt 16:0/18:0 (M01) in human cohorts
# [3] = serum, females, post mortem SDAT
# [4] = serum, females, post mortem control
structure (smiles),measurement,setting,value
"CCCCCCCC/C=C\CCCCCCCC(=O)OC(CO/C=C\CCCCCCCCCCCCCC)COP(=O)(O)OCCN (centres unmarked) [Metabolite M15, Plasmenyl 16:0/18:1]",Ratio of serum levels,"[1]; AD, All to CN, Male",0.842
same,Ratio of serum levels,"[1]; ADAS 5-19 to CN, Male",0.883
same,Ratio of serum levels,"[1]; ADAS 20-39 to 5-19, Male",0.917
same,Ratio of serum levels,"[1]; ADAS 20-39 to CN, Male",0.810
same,Ratio of serum levels,"[1]; ADAS 40-70 to 5-19, Male",0.888
same,Ratio of serum levels,"[1]; ADAS 40-70 to 20-39, Male",0.968
same,Ratio of serum levels,"[1]; ADAS 40-70 to CN, Male",0.784
same,"Serum level, Mean","[1]; Cognitive Normal, Female",0.073
same,"Average serum level, Mean","[1]; Cognitive Normal, Male",0.076
same,"Serum level, Mean","[1]; Post Mortem Ctl, Male",0.045
same,"Serum level, Mean",[1]; Post Mortem SDAT Male,0.029
same,Ratio of serum levels,"[1]; Post mortem SDAT vs Control, Male",0.648
same,"Serum level, Mean","[1]; SDAT, ADAS 5-19, Female",0.061
same,"Average serum level, Mean","[1]; SDAT, ADAS 5-19, Male",0.067
same,"Serum level, Mean","[1]; SDAT, ADAS 20-39, Female",0.061
same,"Average serum level, Mean","[1]; SDAT, ADAS 20-39, Male",0.062
same,"Serum level, Mean","[1]; SDAT, ADAS 40-70, Female",0.056
same,"Average serum level, Mean","[1]; SDAT, ADAS 40-70, Male",0.060
same,"Serum level, Mean","[1]; SDAT_all, Female",0.059
same,"Average serum level, Mean","[1]; SDAT_all, Male",0.064
same,"Ratio, ADAS 5-19 to CN, Female","[1]; serum level ratio, females, ADAS 5-19 vs CN",0.835
same,"Ratio, ADAS 20-39 to 5-19, Female","[1]; serum level ratio, females, ADAS 20-39 vs ADAS 5-19",0.996
same,"Ratio, ADAS 20-39 to CN, Female","[1]; serum level ratio, females, ADAS 20-39 vs CN",0.831
same,"Ratio, ADAS 40-70 to 5-19, Female","[1]; serum level ratio, females, ADAS 40-70 vs ADAS 5-19",0.922
same,"Ratio, ADAS 40-70 to 20-39, Female","[1]; serum level ratio, females, ADAS 40-70 vs ADAS 20-39",0.926
same,"Ratio, ADAS 40-70 to CN, Female","[1]; serum level ratio, females, ADAS 40-70 vs CN",0.770
same,"Ratio, 50-59 vs. 40-49, Female","[1]; serum level ratio, females, age 50-59 vs 40-49",0.864
same,"Ratio, 60-69 vs. 40-49, Female","[1]; serum level ratio, females, age 60-69 vs 40-49",0.841
same,"Ratio, 70+ vs. 40-49, Female","[1]; serum level ratio, females, age 70+ vs 40-49",0.871
same,"Ratio, AD, All to CN, Female","[1]; serum level ratio, females, all AD vs cognitively normal",0.811
same,"Ratio, Autopsy AD vs. Control, Female","[1]; serum level ratio, females, autopsy AD vs control",0.577
same,"Ratio, 50-59 vs. 40-49, Male","[1]; serum level ratio, males, age 50-59 vs 40-49",0.987
same,"Ratio, 60-69 vs. 40-49, Male","[1]; serum level ratio, males, age 60-69 vs 40-49",0.985
same,"Ratio, 70+ vs. 40-49, Male","[1]; serum level ratio, males, age 70+ vs 40-49",1.020
same,"Mean serum level, Age Ctl, 30-39, Female","[1]; serum, females, age 30-39",0.071
same,"Mean serum level, Age Ctl, 40-49, Female","[1]; serum, females, age 40-49",0.079
same,"Mean serum level, Age Ctl, 50-59, Female","[1]; serum, females, age 50-59",0.068
same,"Mean serum level, Age Ctl, 60-69, Female","[1]; serum, females, age 60-69",0.066
same,"Mean serum level, Age Ctl, 70+, Female","[1]; serum, females, age 70+",0.069
same,"Mean serum level, Post Mortem SDAT, Female",[1]; [3],0.034
same,"Mean serum level, Post Mortem Ctl, Female",[1]; [4],0.060
same,"Mean serum level, Age Ctl, 30-39, Male","[1]; serum, males, age 30-39",0.085
same,"Mean serum level, Age Ctl, 40-49, Male","[1]; serum, males, age 40-49",0.075
same,"Mean serum level, Age Ctl, 50-59, Male","[1]; serum, males, age 50-59",0.074
same,"Mean serum level, Age Ctl, 60-69, Male","[1]; serum, males, age 60-69",0.074
same,"Mean serum level, Age Ctl, 70+, Male","[1]; serum, males, age 70+",0.076
same,Ratio of ethanolamine phospholipid ratios to M01 between cohorts,"[2]; AD, All to CN, Male",0.803
same,Ratio of ethanolamine phospholipid ratios to M01 between cohorts,"[2]; ADAS 5-19 to CN, Male",0.837
same,Ratio of ethanolamine phospholipid ratios to M01 between cohorts,"[2]; ADAS 20-39 to CN, Male",0.792
same,Ratio of ethanolamine phospholipid ratios to M01 between cohorts,"[2]; ADAS 40-70 to CN, Male",0.762
same,"Average serum ethanolamine phospholipid ratio to M01, Mean","[2]; Cognitive Normal, Male, serum",0.682
same,"Average serum ethanolamine phospholipid ratio to M01, Mean","[2]; SDAT, ADAS 5-19, Male, serum",0.571
same,"Average serum ethanolamine phospholipid ratio to M01, Mean","[2]; SDAT, ADAS 20-39, Male, serum",0.541
same,"Average serum ethanolamine phospholipid ratio to M01, Mean","[2]; SDAT, ADAS 40-70, Male, serum",0.520
same,"Average serum ethanolamine phospholipid ratio to M01, Mean","[2]; SDAT_all, Male, serum",0.548
same,"Ethanolamine Phospholipid Ratio to M01, Mean, Age Ctl, 30-39, Female","[2]; human serum, females aged 30-39",0.706
same,"Ethanolamine Phospholipid Ratio to M01, Mean, Age Ctl, 40-49, Female","[2]; human serum, females aged 40-49",0.720
same,"Ethanolamine Phospholipid Ratio to M01, Mean, Age Ctl, 50-59, Female","[2]; human serum, females aged 50-59",0.699
same,"Ratio of Ethanolamine Phospholipid Ratio to M01, 50-59 vs. 40-49, Female","[2]; human serum, females aged 50-59 vs. females aged 40-49",0.970
same,"Ethanolamine Phospholipid Ratio to M01, Mean, Age Ctl, 60-69, Female","[2]; human serum, females aged 60-69",0.560
same,"Ratio of Ethanolamine Phospholipid Ratio to M01, 60-69 vs. 40-49, Female","[2]; human serum, females aged 60-69 vs. females aged 40-49",0.778
same,"Ethanolamine Phospholipid Ratio to M01, Mean, Age Ctl, 70+_Female","[2]; human serum, females aged 70+",0.578
same,"Ratio of Ethanolamine Phospholipid Ratio to M01, 70+ vs. 40-49, Female","[2]; human serum, females aged 70+ vs. females aged 40-49",0.802
same,"Ratio of Ethanolamine Phospholipid Ratio to M01, 50-59 vs. 40-49, Male","[2]; human serum, males aged 50-59 vs. males aged 40-49",1.026
same,"Ratio of Ethanolamine Phospholipid Ratio to M01, 60-69 vs. 40-49, Male","[2]; human serum, males aged 60-69 vs. males aged 40-49",0.862
same,"Ratio of Ethanolamine Phospholipid Ratio to M01, 70+ vs. 40-49, Male","[2]; human serum, males aged 70+ vs. males aged 40-49",0.896
same,"Ratio of ethanolamine phospholipid ratio to M01, ADAS 5-19 to CN, Female","[2]; serum, females, ADAS 5-19 vs cognitive normal",0.900
same,"Ratio of ethanolamine phospholipid ratio to M01, ADAS 20-39 to 5-19, Female","[2]; serum, females, ADAS 20-39 vs ADAS 5-19",0.998
same,"Ratio of ethanolamine phospholipid ratio to M01, ADAS 20-39 to CN, Female","[2]; serum, females, ADAS 20-39 vs cognitive normal",0.897
same,"Ratio of ethanolamine phospholipid ratio to M01, ADAS 40-70 to 5-19, Female","[2]; serum, females, ADAS 40-70 vs ADAS 5-19",0.874
same,"Ratio of ethanolamine phospholipid ratio to M01, ADAS 40-70 to 20-39, Female","[2]; serum, females, ADAS 40-70 vs ADAS 20-39",0.876
same,"Ratio of ethanolamine phospholipid ratio to M01, ADAS 40-70 to CN, Female","[2]; serum, females, ADAS 40-70 vs cognitive normal",0.786
same,"Ethanolamine phospholipid ratio to M01, Mean, SDAT, ADAS 5-19, Female","[2]; serum, females, SDAT ADAS 5-19",0.564
same,"Ethanolamine phospholipid ratio to M01, Mean, SDAT, ADAS 20-39, Female","[2]; serum, females, SDAT ADAS 20-39",0.563
same,"Ethanolamine phospholipid ratio to M01, Mean, SDAT, ADAS 40-70, Female","[2]; serum, females, SDAT ADAS 40-70",0.493
same,"Ratio of ethanolamine phospholipid ratio to M01, AD, All to CN, Female","[2]; serum, females, all AD vs cognitive normal",0.860
same,"Ethanolamine phospholipid ratio to M01, Mean, SDAT_all Female","[2]; serum, females, all SDAT",0.539
same,"Ratio of ethanolamine phospholipid ratio to M01, Autopsy AD vs. Control, Female","[2]; serum, females, autopsy AD vs post mortem control",0.889
same,"Ethanolamine phospholipid ratio to M01, Mean, Cognitive Normal, Female","[2]; serum, females, cognitive normal",0.627
same,"Ethanolamine phospholipid ratio to M01, Mean, Post Mortem SDAT Female",[2]; [3],0.301
same,"Ethanolamine phospholipid ratio to M01, Mean, Post Mortem Ctl, Female",[2]; [4],0.339
same,"Ratio of ethanolamine phospholipid ratio to M01, ADAS 20-39 to 5-19, Male","[2]; serum, males, SDAT ADAS 20-39 vs ADAS 5-19",0.947
same,"Ratio of ethanolamine phospholipid ratio to M01, ADAS 40-70 to 5-19, Male","[2]; serum, males, SDAT ADAS 40-70 vs ADAS 5-19",0.911
same,"Ratio of ethanolamine phospholipid ratio to M01, ADAS 40-70 to 20-39, Male","[2]; serum, males, SDAT ADAS 40-70 vs ADAS 20-39",0.962
same,"Ethanolamine phospholipid ratio to M01, Mean, Age Ctl, 30-39, Male","[2]; serum, males, age control 30-39",0.699
same,"Ethanolamine phospholipid ratio to M01, Mean, Age Ctl, 40-49, Male","[2]; serum, males, age control 40-49",0.658
same,"Ethanolamine phospholipid ratio to M01, Mean, Age Ctl, 50-59, Male","[2]; serum, males, age control 50-59",0.675
same,"Ethanolamine phospholipid ratio to M01, Mean, Age Ctl, 60-69, Male","[2]; serum, males, age control 60-69",0.567
same,"Ethanolamine phospholipid ratio to M01, Mean, Age Ctl, 70+_Male","[2]; serum, males, age control 70+",0.590
same,"Ethanolamine phospholipid ratio to M01, Mean, Post Mortem SDAT Male","[2]; serum, males, post mortem SDAT",0.344
same,"Ratio of ethanolamine phospholipid ratio to M01, SDAT vs Control (post mortem, males)","[2]; serum, males, post mortem SDAT vs post mortem control",0.918
same,"Ethanolamine phospholipid ratio to M01, Mean, Post Mortem Ctl, Male","[2]; serum, males, post mortem control",0.375
